Where two headings read alike, the source gives them in different places. No constants are given. Whether binding was seen depends on the method and setting.
Columns and labels:
[1] = target: T1, Turnip crinkle virus P38 protein (TCV P38), wildtype (Turnip crinkle virus) (UniProt P06663); assay: native MS
T1 sequence: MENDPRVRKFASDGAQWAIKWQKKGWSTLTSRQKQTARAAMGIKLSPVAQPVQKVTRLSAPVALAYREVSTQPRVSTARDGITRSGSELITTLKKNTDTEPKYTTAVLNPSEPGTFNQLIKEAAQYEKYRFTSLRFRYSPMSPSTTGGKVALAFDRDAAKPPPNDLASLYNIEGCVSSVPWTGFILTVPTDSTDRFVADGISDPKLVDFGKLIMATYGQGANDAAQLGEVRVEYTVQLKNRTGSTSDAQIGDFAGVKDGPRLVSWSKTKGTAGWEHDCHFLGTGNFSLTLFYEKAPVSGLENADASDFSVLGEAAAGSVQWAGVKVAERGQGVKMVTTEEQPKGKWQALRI

[2] = target: T1, Turnip crinkle virus P38 protein (TCV P38), wildtype (Turnip crinkle virus); assay: native MS; remark: listed apart in the source

TCV P38_W274A (from UniProt P06663 1-351)
binding [1]: no binding | binding [2]: no binding

— doi:10.1101/2025.11.26.690650 (bioRxiv, 2025)
